From the supplement of paper PMC6289059 come the findings set out here.

This is one part of the list. Repeats are few or missing, and single values can be far off.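 The assay uses human stem cell-derived hepatocyte-like cells whose DGUOK gene was disrupted by CRISPR, modeling liver mtDNA depletion syndrome. ATP signals were scored within each plate, and any drug with a score of at least 3 was called a primary hit.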

For the test, the system named is DGUOK Δ14/Δ5 iPSC-derived hepatocyte-like cells (SV20). In words: ATP level (CellTiter-Glo luminescence) Z score relative to plate distribution, under 2-DG glycolysis block; higher = more cellular ATP (rescue of mitochondrial ATP production). The settings on record: 5 µM; treatment time: day 15 to day 20 of differentiation (5 days); 2-deoxy-D-glucose: 20 mM for 24 h before assay.
As for `N=C(N)N/N=C/c1c(Cl)cccc1Cl`, the ATP level is inactive: -7.6. As for `Cc1ccc2c(Cl)cc(Cl)c(O)c2n1`, the ATP level was inactive: 0.308. Regarding `OC(CCN1CCCCC1)(c1ccccc1)C1CCCCC1` (stereo not given), the ATP level was inactive: -12.7. Then `CCC(=O)OCC(=O)[C@@]1(OC(=O)CC)[C@H](C)C[C@H]2[C@H]3[C@H]([C@@H](O)C[C@@]21C)[C@@]1(C)C=CC(=O)C=C1C[C@H]3Cl`, with inactive: 0.863; and `CN(CCOc1ccc(CC2SC(=O)NC2=O)cc1)c1ccccn1` (stereo not given), with inactive: 2.25. Under `O=C(CC(=O)c1ccccc1)c1ccccc1` stands inactive: 0.888. For `C[C@H]1C[C@@H]2[C@H]([C@@H](O)C[C@@]3(C)[C@H]2CC[C@]3(O)C(=O)COC(=O)CCC(=O)O)[C@@]2(C)C=CC(=O)C=C12`, the ATP level is active: 7.28. Under `Nc1cc(-c2ccncc2)c[nH]c1=O` stands active: 5.56; under `CC(N)C12CC3CC(CC(C3)C1)C2` (stereo not given), inactive: -0.169. Then `COC(=O)C(N)CS` (stereo not given), with inactive: 0.844. On to `Cn1c([N+](=O)[O-])cnc1COC(N)=O`, for which the ATP level is inactive: 1.87. Under `COC(=O)[C@@H]1OC(=O)C2OC23[C@@]1(C)CCC1[C@@]2(C)CCC(=O)C(C)(C)C2C[C@@H](OC(C)=O)[C@]13C` (stereo not given in full) stands inactive: 0.152. Under `NC(N)=O` stands inactive: -1.51; under `COc1ccc(C(=O)NCc2ccc(OCCN(C)C)cc2)cc1OC`, inactive: -0.746; under `N[C@@H](C(=O)N[C@@H]1C(=O)N2C(C(=O)O)=C(Cl)CS[C@H]12)c1ccccc1`, inactive: 0.841. Then `COc1ccc(-c2cc(C(F)F)nn2-c2ccc(S(N)(=O)=O)cc2)cc1F`, with inactive: -1.29; and `OC[C@H]1O[C@@H](O[C@@H]2[C@@H](CO)OC(O)(CO)[C@H]2O)[C@H](O)[C@@H](O)[C@H]1O` (mixture of isomers), with inactive: 1.76; and `C[C@@H]1CC[C@@]2(OC1)O[C@H]1C[C@H]3[C@@H]4CC[C@@H]5C[C@@H](O)CC[C@]5(C)[C@H]4CC[C@]3(C)[C@H]1[C@@H]2C`, with inactive: -1.6. Take `CCCCCCCCCCCCCCCC(=O)NCCO`: the ATP level is inactive: -0.353. On to `C=C1C2CC[C@@]3(C)[C@H](c4ccoc4)OC(=O)C[C@]13O[C@H]1CC(O)C(C)(C)C(CC(=O)OC)[C@@]21C` (stereo partly drawn) [3alpha-HYDROXY-3-DEOXYANGOLENSIC ACID METHYL ESTER], for which the ATP level was inactive: -3.03. In the case of `O=C(O)c1ccccc1Nc1ccccc1`, the ATP level was inactive: 0.254.

For `Nc1ncnc(Nc2ccc(Cl)cc2)n1`, the ATP level is inactive: 1.01.

For the compound `CC(=O)O[C@H]1CC[C@]2(C)C3=C(CC[C@H]2C1(C)C)[C@]1(C)CC[C@H]([C@H](C)CCC=C(C)C)[C@@]1(C)CC3`, the ATP level is inactive: 1.73. Under `CC1CCc2c(N3CCC(O)CC3)c(F)cc3c(=O)c(C(=O)O)cn1c23` (stereo not given) stands inactive: -3.6. As for `Clc1ccc(COC(Cn2ccnc2)c2ccc(Cl)cc2Cl)c(Cl)c1` (stereo not given), the ATP level was inactive: 1.93. Under `Cc1cc(=O)n(-c2ccccc2)n1C` stands inactive: -0.215.

Regarding `NC12CC3CC(CC(C3)C1)C2`, the ATP level was inactive: 1.25.

Turning to `CO[C@H]1O[C@@H]2O[C@@]3(C)CC[C@H]4[C@H](C)CC[C@@H]([C@H]1C)[C@@]24OO3`, the ATP level was inactive: 1.83.

Take `O=c1c2ccccc2oc2ccccc12`: the ATP level was inactive: -0.223. Under `CC(C)(C(=O)c1cccnc1)c1cccnc1` stands inactive: 1.47; under `NCCCCNCCCN`, inactive: 0.408. `CN1CC(=O)NC1=N`: the ATP level was inactive: -2.63. Consider `C=CC(C)(O)CCC1C(=C)CC(O)C2C(C)(C)CCCC12C` (stereo not given), for which the ATP level was inactive: -5.6. Under `CC(=O)N(O)CCCCCNC(=O)CCC(=O)N(O)CCCCCNC(=O)CCC(=O)N(O)CCCCCN` stands inactive: 0.634; under `O=C1Cc2cc(CCN3CCN(c4nsc5ccccc45)CC3)c(Cl)cc2N1`, inactive: -0.537. Then `CC(C)/N=c1\cc2n(-c3ccc(Cl)cc3)c3ccccc3nc-2cc1Nc1ccc(Cl)cc1`, with active: 4.62; and `CCNC(=O)CC[C@H](N)C(=O)O`, with inactive: 0.758. Under `CO[C@@]1(NC(=O)CSCC#N)C(=O)N2C(C(=O)O)=C(CSc3nnnn3C)CS[C@@H]21` stands inactive: 1.21.

For the compound `C[C@@H]1[C@H](O)[C@@H](C)/C=C/C=C/C=C/C=C/C=C/C=C/C=C/[C@H](O[C@@H]2O[C@H](C)[C@@H](O)[C@H](N)[C@@H]2O)C[C@@H]2O[C@](O)(C[C@@H](O)C[C@@H](O)[C@H](O)CC[C@@H](O)C[C@@H](O)CC(=O)O[C@H]1C)C[C@H](O)[C@H]2C(=O)O`, the ATP level was inactive: -0.128. Under `CCOC(=O)C(C)(C)Oc1ccc(Cl)cc1` stands inactive: 1.33; under `CCC(NC(C)C)C(O)c1ccc(O)c(O)c1` (stereo not given), inactive: 1.76.

As to `CCC(Cc1c(I)cc(I)c(N)c1I)C(=O)O` (stereo not given), the ATP level is inactive: 1.91. Under `CN1CCc2cccc3c2[C@H]1Cc1ccc(O)c(O)c1-3` stands inactive: -2.08; under `CN(C)c1ccc(O)c2c1C[C@H]1C[C@H]3[C@H](N(C)C)C(=O)C(C(N)=O)=C(O)[C@@]3(O)C(=O)C1=C2O`, inactive: -1.61. Then `C[C@]12CC[C@@H]3c4ccc(O)cc4CC[C@H]3[C@@H]1CC[C@@H]2OC(=O)CCC1CCCC1`, with inactive: 0.032; and `COc1cc(OC)c(C(=O)CCCN2CCCC2)c(OC)c1`, with inactive: 0.803; and `N#CC(c1ccc(Cl)cc1)c1c(Cl)cc(-n2ncc(=O)[nH]c2=O)cc1Cl` (stereo not given), with inactive: 0.872. Then `O.O.O.O.O=C([O-])CC(O)(CC(=O)[O-])C(=O)[O-].[Li+].[Li+].[Li+]`, with inactive: 1.18. Regarding `O=C[C@H](O)[C@H](O)CO`, the ATP level was inactive: -1.62. Then `CCN1C(=O)NC(c2ccccc2)C1=O` (stereo not given), with inactive: 1.54. Under `COc1ccccc1N1CCN(CC(O)COc2cccc3ccccc23)CC1` (stereo not given) stands inactive: -8.43.

Take `CN1CCC(=C2c3ccccc3CC(=O)c3sccc32)CC1`: the ATP level was inactive: 0.669. Then `CC[C@H](CC[C@@H](C)[C@H]1CC[C@H]2[C@@H]3CC=C4C[C@@H](O)CC[C@]4(C)[C@H]3CC[C@]12C)C(C)C` [beta-SITOSTEROL], with inactive: -0.581; and `CCCCC[C@H](CC(=O)O)C(=O)O`, with inactive: 0.83.

`CCCN(CCC)C(=O)C(CCC(=O)O)NC(=O)c1ccccc1` (stereo not given): the ATP level was inactive: -4.89. In the case of `CC(C)(Sc1cc(C(C)(C)C)c(O)c(C(C)(C)C)c1)Sc1cc(C(C)(C)C)c(O)c(C(C)(C)C)c1`, the ATP level was inactive: 0.916. Then `COc1cc(-c2coc3cc(OC)c(OC)c(OC)c3c2=O)cc(OC)c1OC`, with inactive: -1.47. Then `C[C@]12CCC3c4ccc(OC(=O)c5ccccc5)cc4CCC3C1CCC2=O` (stereo not given in full), with inactive: -15.3. Then `Oc1ccc(Cl)c2cccnc12`, with inactive: -3.03; and `Nc1c(Br)cc(Br)cc1CN[C@H]1CC[C@H](O)CC1`, with inactive: -1.27. Take `CCC(=O)c1ccc(O)cc1`: the ATP level is inactive: 0.548.

Take `COc1ccc(-c2c(O)c3c(OC)c4c(cc3oc2=O)OC(C)(C)C=C4)cc1`: the ATP level is inactive: 0.404. Then `CC(=O)N[C@@H](CCC(N)=O)C(=O)O`, with inactive: 1.26; and `CC(=O)NO`, with inactive: -1.16; and `CN1CCCN=C1COC(=O)C(O)(c1ccccc1)C1CCCCC1` (stereo not given), with inactive: -0.217. Then `CC(C)(Oc1ccc(Cl)cc1)C(=O)O`, with inactive: 1.12. Under `OC[C@@H](O)C(O)[C@H](O)CO` stands inactive: -4.56. As for `CCCCCCCCCCC[C@@H](C[C@@H]1OC(=O)[C@H]1CCCCCC)OC(=O)[C@H](CC(C)C)NC=O`, the ATP level is inactive: 0.212. Then `COc1ccc(-c2oc3ccccc3c(=O)c2OC)cc1`, with inactive: -1.62; and `O=C1O[C@H](CO)[C@@H](O)[C@H](O)[C@H]1O`, with active: 3.43; and `C=CCCCCCCCCCCCC(O)CC(O)COC(C)=O` (stereo not given), with inactive: 2.87. Turning to `CC(C)(S)[C@@H](N)C(=O)O`, the ATP level was inactive: 1.99. Under `O=C(O)C1CSCN1` (stereo not given) stands inactive: -0.138; under `O=C(O)CCCN1C(=O)c2cccc3cccc(c23)C1=O`, inactive: 2.82; under `CO[C@H]1C[C@H](O[C@H]2[C@H](C)[C@@H](O[C@@H]3O[C@H](C)C[C@H](N(C)C)[C@H]3OC(C)=O)[C@@H](C)C[C@@]3(CO3)C(=O)[C@H](C)[C@@H](OC(C)=O)[C@@H](C)[C@@H](C)OC(=O)[C@@H]2C)O[C@@H](C)[C@@H]1OC(C)=O`, inactive: 1.11. In the case of `Cc1cccc(C)c1NC(=O)C1CCCCN1C` (stereo not given), the ATP level is inactive: 0.0366. Then `COc1ccc(C2C(=O)c3ccccc3C2=O)cc1`, with inactive: 0.63; and `COc1cc(/C=C/C(=O)N2CCC=CC2=O)cc(OC)c1OC`, with inactive: 1.08. On to `CN(C)c1ccc2nc3ccc(=[N+](C)C)cc-3sc2c1`, for which the ATP level is inactive: -5.58.

For `N#Cc1ccc2[nH]cc(CCCCN3CCN(c4ccc5oc(C(N)=O)cc5c4)CC3)c2c1`, the ATP level is inactive: 1.7. Under `CN1C(C(=O)Nc2ccccn2)=C(O)c2sccc2S1(=O)=O` stands active: 9.21; under `COc1cc(OC)c2c(OC)c(-c3ccc4c(c3)OCO4)c(=O)oc2c1`, inactive: -1.02; under `Cc1ncc([N+](=O)[O-])n1CC(O)CCl` (stereo not given), inactive: -13.1. Under `C[C@]12C=CC(=O)C=C1CC[C@@H]1[C@@H]2[C@@H](O)C[C@@]2(C)[C@H]1CC[C@]2(O)C(=O)COP(=O)(O)O` stands inactive: 1.1. Turning to `C[C@]12CC[C@H]3C(=CCc4cc(O)ccc43)[C@@H]1CCC2=O`, the ATP level is inactive: -0.736. Under `N=C(N)N` stands inactive: -0.144.

Turning to `Cc1c(C(N)=O)cc([N+](=O)[O-])cc1[N+](=O)[O-]`, the ATP level was inactive: 0.704.

For `C=C[C@H]1CN2CC[C@H]1C[C@@H]2[C@@H](O)c1ccnc2ccc(OC)cc12`, the ATP level was inactive: 1.6. Then `Oc1ccc(Cl)c2c1CCC2`, with inactive: 1.09.

On to `CS(=O)(=O)c1ccc(C2=C(c3ccccc3)C(=O)OC2)cc1`, for which the ATP level is inactive: 1.05.
